{"source": "PubChem BioAssay AID1259254 (NCATS, 2017)", "assay": "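Finding genes that stop cells copying their DNA twice in one cycle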 (primary screen)", "system": "human HCT116 colorectal cancer cells", "reagents": "single siRNA against human genes", "time to read-out": "3 days", "measured": "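Imaged Hoechst DNA stain sorts each cell into a cycle phase by DNA amount; per plate, G2 fraction set to 0% for non-targeting and 100% for GMNN siRNA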", "scale": "G2 robust z-score: higher = more G2 cells, more excess DNA replication", "active means": "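An siRNA counts as active if its G2 robust z-score lies at least 5 MADs above the screen median; here such calls match roughly 38% of GMNN control or more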", "note": "Shown is an unselected part of about 59,000 deposited reagents. About 1,550 of all reagents (2.6%) count as active. 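G2 share is only a proxy for re-replication; each gene was hit by three separate siRNAs, and active genes were retested.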 The numbers tell different reagents against one gene apart. Not all columns of the deposit are shown. The record does not give: the amount of reagent."}
{"gene knocked down": "GJB4 (GeneID 127534)", "reagent": 1, "G2 robust z-score": 2.69, "outcome": "inactive"}
{"gene knocked down": "GJB4 (GeneID 127534)", "reagent": 2, "G2 robust z-score": 0.671, "outcome": "inactive"}
{"gene knocked down": "GJB4 (GeneID 127534)", "reagent": 3, "G2 robust z-score": -0.5, "outcome": "inactive"}
{"gene knocked down": "CCL25 (GeneID 6370)", "reagent": 1, "G2 robust z-score": -0.948, "outcome": "inactive"}
{"gene knocked down": "CCL25 (GeneID 6370)", "reagent": 2, "G2 robust z-score": -0.602, "outcome": "inactive"}
{"gene knocked down": "CCL25 (GeneID 6370)", "reagent": 3, "G2 robust z-score": -0.13, "outcome": "inactive"}
{"gene knocked down": "TMPRSS6 (GeneID 164656)", "reagent": 1, "G2 robust z-score": -0.0424, "outcome": "inactive"}
{"gene knocked down": "TMPRSS6 (GeneID 164656)", "reagent": 2, "G2 robust z-score": 4.29, "outcome": "inactive"}
{"gene knocked down": "TMPRSS6 (GeneID 164656)", "reagent": 3, "G2 robust z-score": -0.294, "outcome": "inactive"}
{"gene knocked down": "WFDC8 (GeneID 90199)", "reagent": 1, "G2 robust z-score": 0.682, "outcome": "inactive"}
{"gene knocked down": "WFDC8 (GeneID 90199)", "reagent": 2, "G2 robust z-score": -0.36, "outcome": "inactive"}
{"gene knocked down": "WFDC8 (GeneID 90199)", "reagent": 3, "G2 robust z-score": -0.247, "outcome": "inactive"}
{"gene knocked down": "ZFR2 (GeneID 23217)", "reagent": 1, "G2 robust z-score": 0.216, "outcome": "inactive"}
{"gene knocked down": "ZFR2 (GeneID 23217)", "reagent": 2, "G2 robust z-score": -0.542, "outcome": "inactive"}
{"gene knocked down": "ZFR2 (GeneID 23217)", "reagent": 3, "G2 robust z-score": -0.499, "outcome": "inactive"}
{"gene knocked down": "MS4A5 (GeneID 64232)", "reagent": 1, "G2 robust z-score": -0.351, "outcome": "inactive"}
{"gene knocked down": "MS4A5 (GeneID 64232)", "reagent": 2, "G2 robust z-score": -0.0501, "outcome": "inactive"}
{"gene knocked down": "MS4A5 (GeneID 64232)", "reagent": 3, "G2 robust z-score": -0.325, "outcome": "inactive"}
{"gene knocked down": "KLHL5 (GeneID 51088)", "reagent": 1, "G2 robust z-score": -1.29, "outcome": "inactive"}
{"gene knocked down": "KLHL5 (GeneID 51088)", "reagent": 2, "G2 robust z-score": 1.48, "outcome": "inactive"}
{"gene knocked down": "KLHL5 (GeneID 51088)", "reagent": 3, "G2 robust z-score": -0.488, "outcome": "inactive"}
{"gene knocked down": "RPS15 (GeneID 6209)", "reagent": 1, "G2 robust z-score": 8.94, "outcome": "active"}
{"gene knocked down": "RPS15 (GeneID 6209)", "reagent": 2, "G2 robust z-score": 4.34, "outcome": "inactive"}
{"gene knocked down": "RPS15 (GeneID 6209)", "reagent": 3, "G2 robust z-score": 0.988, "outcome": "inactive"}

Ordered by “G2 robust z-score” (descending): some entries from above.
{"gene knocked down": "KLHL5 (GeneID 51088)", "reagent": 2, "G2 robust z-score": 1.48, "outcome": "inactive"}
{"gene knocked down": "MS4A5 (GeneID 64232)", "reagent": 3, "G2 robust z-score": -0.325, "outcome": "inactive"}
{"gene knocked down": "KLHL5 (GeneID 51088)", "reagent": 3, "G2 robust z-score": -0.488, "outcome": "inactive"}
{"gene knocked down": "KLHL5 (GeneID 51088)", "reagent": 1, "G2 robust z-score": -1.29, "outcome": "inactive"}
